Experimental data published in PubChem BioAssay AID2685 (National Center for Advancing Translational Sciences (NCATS), 2010).
Screen size: about 320,000 compounds; about 2,100 (0.66%) were called active. The inconclusive results got no clear call from the source; some entries with a clear call stand among them for comparison. The call rests on the fitted dose curve; in most records, active means well fitted inhibition curve with a large enough effect in the signal ratio, with a control signal flat (not every such curve was filed as active); inconclusive means small, poorly fitted or top-dose-only effect, or effect the other way, or a change in a side signal; inactive means flat fitted curve, though single readings scatter; the % refers to the signal ratio. Where the call is inconclusive, the potency comes from a doubtful curve fit.

assay: qHTS Assay for Lipid Storage Modulators in Drosophila S3 Cells; details: BODIPY lipid droplet fluorescence, 18-24 h, cells fed with added oleic acid; lipid storage change, negative = inhibition: at 46.1 µM (top of the series) unless noted
Summary of the method: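 Drosophila S3 cells got compounds at several concentrations plus oleic acid (400 uM solution). Laser-scanning cytometry with 488 nm excitation read lipid droplets at 500-530 nm and cells at 575-640 nm. Percent activity was relative to 20 uM Triacsin C.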
On the % scale 0 is the no-effect control and ±100 the full control effect; potency means the concentration at half of the fitted maximal effect.

| SMILES | Potency | lipid storage change, negative = inhibition |
| --- | --- | --- |
| COCCOC(=O)c1[nH]c2c(c1C)C(=O)CC(c1cc(OC)ccc1OC)C2 (stereo not given) | inconclusive: 0.58 µM [activator, full curve, poor fit] |  |
| O=C1OCCC1S(=O)(=O)c1ccc2ccccc2c1 (stereo not given) | inconclusive: 0.13 µM [activator, full curve, poor fit] |  |
| CCCNC(=O)C(Cc1ccccc1F)NC(=O)c1ccccn1 (stereo not given) |  | inconclusive: 49.7% |
| C=CC#CC1(O)CC(C)N(C)CC1C (stereo not given) |  | inconclusive: -35.6% |
| Cc1cc(C)c(NC(=O)c2cccc3c2C(=O)N(C2CCCCC2)C3)c(C)c1 | inconclusive: 29.1 µM [falling, single point] |  |
| CCOc1c(Cl)cc(C(=O)Nc2cccc(C(=O)O)c2)cc1Cl |  | inconclusive: 40.1% |
| COc1cccc(/C=C2/C(=O)NN(c3ccc(C)c(C)c3)C2=O)c1 |  | inconclusive: 16.4% |
| COc1cc(/C=C(\C#N)c2nc3ccc(C)cc3[nH]2)cc([N+](=O)[O-])c1O | inconclusive: 29.1 µM [cytotoxic, single point] |  |
| COc1ccccc1C1C(C(N)=O)=C(C)Nc2ncnn21 (stereo not given) | inconclusive: 1.16 µM [falling, single point] |  |
| CSc1nc(-c2ccc(Cl)cc2)c(C#N)c(=O)[nH]1 |  | inactive: 0.0192% |
| Cc1ccc(S(=O)(=O)N2CCCCC2C(=O)N(C)c2ccccc2)cc1 (stereo not given) |  | inconclusive: -7.75% |
| COCCNC(=S)N/N=C/c1ccc(OCc2ccc(C(=O)OC)cc2)c(OC)c1 |  | inconclusive: 26.8% |
| CN1CCN(c2ccc(NC(=O)c3cc(Cl)c4c(c3)OCCO4)cc2)CC1 |  | inconclusive |
| O=S(=O)(Nc1cccc(-c2cn3c(n2)SCC3)c1)c1ccccc1 |  | inconclusive: -20.8% |
| COc1ccc(NC(=O)c2sc3nc(N4CCOCC4)c4c(c3c2N)CC(C)(C)OC4)c(OC)c1 | inconclusive: 6.51 µM [falling, single point] |  |
| O=C(CSc1nc2ccccc2c(=O)[nH]1)Nc1ccccc1O | inconclusive: 0.116 µM [falling, single point] |  |
| CCc1nc(CN2CCCC(C(=O)c3ccc4c5c(cccc35)CC4)C2)c(C)[nH]1 (stereo not given) |  | inconclusive: 8.29% |
| Cc1ccccc1C(=O)NCC(=O)NCC1(N2CCOCC2)CCCCC1 |  | inconclusive |
| COc1cccc(-c2nc(-c3ccc(NC(=O)c4cccnc4)cc3)no2)c1 |  | inconclusive: -1.31% |
| Cc1c(-c2n[nH]c(=S)n2-c2ccc(C(F)(F)F)cc2)nnn1-c1ccccc1 | inconclusive: 3.26 µM [activator, full curve] |  |
| COc1ccc(NC(=O)/C(=C\c2ccco2)NC(=O)c2ccco2)cc1 |  | inconclusive: 230% |
| CC(C)OC(=O)CC12CN3CC(CC(=O)OC(C)C)(CN(C1)C(=O)c1ccccc1C3=O)C2=O |  | inconclusive: 8.77% |
| COc1cc(C(=O)NC(=S)Nc2ccc([N+](=O)[O-])cc2C)cc(OC)c1OC |  | inconclusive: 13% |
| O=[N+]([O-])c1ccc2c(c1)Nc1nc3ccccc3nc1N2 | inconclusive: 29.1 µM [falling, single point] |  |
| CCN1C(=O)c2cccc3c(S(=O)(=O)N(C(=O)c4ccncc4)c4ccc(OC)cc4)ccc1c23 |  | inconclusive: 12.6% |

Structures from the list above containing a nitro group on carbon (3):

| SMILES | Potency | lipid storage change, negative = inhibition |
| --- | --- | --- |
| COc1cc(/C=C(\C#N)c2nc3ccc(C)cc3[nH]2)cc([N+](=O)[O-])c1O | inconclusive: 29.1 µM [cytotoxic, single point] |  |
| COc1cc(C(=O)NC(=S)Nc2ccc([N+](=O)[O-])cc2C)cc(OC)c1OC |  | inconclusive: 13% |
| O=[N+]([O-])c1ccc2c(c1)Nc1nc3ccccc3nc1N2 | inconclusive: 29.1 µM [falling, single point] |  |

(more compounds)

| SMILES | Potency | lipid storage change, negative = inhibition |
| --- | --- | --- |
| O=C(c1cc(Cl)nc2ccccc12)N1CCN(S(=O)(=O)c2cccc(C(F)(F)F)c2)CC1 |  | inconclusive: -100% |
| CC1(C)Cc2c(sc3ncn4nc(CCC(=O)O)c(=O)nc4c23)CO1 |  | inconclusive: 52.5% |
| Cn1c(CO)cnc1SCc1ccc(F)cc1 |  | inconclusive: -31.3% |
| O=C(NCCN1CCc2ccccc2C1)Nc1ccc([N+](=O)[O-])cc1 |  | inconclusive: 15.8% |
| COc1ccc(-c2nc(Cn3c(SCc4ccc(F)cc4)nc4ccncc43)c(C)o2)cc1OC | inconclusive: 18.4 µM [activator, partial curve] |  |
| COC(=O)CCC(=O)NNC(=O)CCCOc1ccc(Cl)cc1Cl |  | inconclusive: 2.33% |
| Cc1cc(=O)[nH]c(N2CCN(Cc3ccccc3)CC2)n1 |  | inconclusive: -76.3% |
| S=c1[nH]nc(-c2cccc3ccccc23)n1-c1cccnc1 |  | inconclusive: 18.2% |
| O=C(Oc1cccc2cccnc12)c1cccc(N2C(=O)C3C4CCC(C4)C3C2=O)c1 (stereo not given) | inconclusive: 29.1 µM [falling, single point] |  |
| CCOC(=O)C1=C(COC(=O)C2CC(=O)N(c3ccc(C)cc3)C2)NC(=O)NC1C (stereo not given) |  | inconclusive |
| Cc1oc(-c2ccccc2F)nc1CS(=O)(=O)CC(=O)NCCCN1CCc2ccccc2C1 | inconclusive: 29.1 µM [activator, single point] |  |
| O=C(NC1CCCCC1)C(c1cccnc1)N(C(=O)CCl)c1cccc(Cl)c1 (stereo not given) | inconclusive: 18.4 µM [falling, single point] |  |
| COc1ccc(C(=O)C[n+]2ccc3ccccc3c2C)cc1 |  | inconclusive: -13.7% |
| O=C(CCN1C(=O)/C(=C/c2ccccc2Cl)SC1=S)Nc1ccccc1C(=O)O |  | inconclusive: 9.27% |
| O=C(NCc1ccncc1)C(=O)Nc1nc2ccccc2s1 |  | inconclusive: 8.79% |
| Nc1ccc2nc[nH]c2c1 |  | inconclusive: 78.4% |
| CCOC(=O)c1cnc(SCC(=O)NCc2ccco2)nc1N |  | inconclusive: 10.2% |
| CCC(C)c1ccccc1NC(=O)COC(=O)CCc1cc(OC)c(OC)c(OC)c1 (stereo not given) | inconclusive: 6.51 µM [falling, single point] |  |
| Cn1nc(-c2ccc(OCC(=O)Nc3cccnc3)cc2)c2ccccc2c1=O | inconclusive: 6.51 µM [activator, single point] |  |
| CC(=O)Nc1ccc(NC(=O)C(C)OC(=O)CCCOc2ccc(Cl)c(C)c2)cc1 (stereo not given) |  | inconclusive: 29% |
| O=C(OCC(=O)N1CCN(c2ccccc2)CC1)c1ccc(O)cc1O | inconclusive: 0.013 µM [activator, full curve, poor fit] |  |
| COc1cc(C2C(C(=O)c3cc4ccccc4o3)=C(O)C(=O)N2CCN2CCOCC2)ccc1OCCC(C)C (stereo not given) | inconclusive: 6.51 µM [falling, single point] |  |
| C=CCc1cccc2cc(C(=O)N3CCN(C(=O)c4ccccc4)CC3)c(=O)oc12 |  | inconclusive: 12.4% |
| CC1=CC(C)(C)Nc2ccc(OC(=O)CN3C(=O)c4cccc5cccc(c45)C3=O)cc21 | inconclusive: 32.6 µM [falling, single point] |  |
| CC1CCN(C(=O)Cn2c(SCC(=O)Nc3nccs3)nc3ccccc32)CC1 | inconclusive: 0.517 µM [activator, full curve] |  |

| SMILES | Potency | lipid storage change, negative = inhibition |
| --- | --- | --- |
| N#Cc1ccc(CN2CCN(C(=O)CCNS(=O)(=O)c3ccc(F)c(F)c3)CC2)cc1 | inconclusive: 18.4 µM [falling, single point] |  |
| COC(=O)c1ccccc1S(=O)(=O)N1CCC(C(=O)N2CCC2)CC1 |  | inconclusive: 9.16% |
| COc1ccc(CNC(=O)CSc2nc3ccc(OC)cc3[nH]2)cc1 | inconclusive: 23.1 µM [falling, single point] |  |
| O=C(NCCCn1ccnc1)c1ccc(Cl)cc1 |  | inconclusive: 9.47% |
| Cc1ccc(Nc2cc(=O)n(C3CCCCC3)c(=O)[nH]2)cc1C |  | inconclusive: 0.421% |
| CC1(NC(=O)Cc2ccc(S(=O)(=O)N3CCOCC3)s2)CCS(=O)(=O)C1 (stereo not given) |  | inconclusive |
| Cc1noc(C)c1CSc1ccccc1C(=O)O |  | inconclusive: -20% |
| COc1cccc(-c2nc3n(n2)C(c2ccc4c(c2)OCO4)C(C(N)=O)=C(C)N3)c1 (stereo not given) |  | inconclusive: 10% |
| O=C(/C=C/c1ccccc1)NC(=S)Nc1ccccc1O |  | inconclusive: 7.25% |
| CCN1C(=O)[C@@H]2[C@@H](c3ccc(-c4ccc(OC)cc4)cc3)N3CCCC[C@@]3(C(=O)OC)[C@@H]2C1=O |  | inconclusive: 13.7% |
| CSc1cccc(-n2cc(-c3ccc4c(c3)OCO4)[nH]c2=O)c1 |  | inconclusive: -1.06% |
| COc1ccc(NC(=O)C2C3C=CC4(O3)C2C(=O)N(CCN2CCCCC2)C4C(=O)NC2CCCC(C)C2C)cc1 (stereo not given) | active: 0.92 µM |  |
| COc1ccc(C)cc1S(=O)(=O)NC1CCCCC1 |  | inconclusive: 14.6% |
| Cc1ccc(C)c(S(=O)(=O)N2C(=S)NC(=O)C2CC(C)C)c1 (stereo not given) |  | inconclusive: 38.5% |
| COc1ccccc1NC(=O)c1ccc2c(c1)CCN2S(C)(=O)=O |  | inconclusive: 2.46% |
| O=C(Cc1cccc2ccccc12)NN1C(=O)C2C(C1=O)C1C=CC2C12CC2 (stereo not given) | inconclusive: 14.6 µM [falling, single point] |  |
| O=C(O)c1cccc(-c2ccc(/C=c3/sc4nc5ccccc5n4c3=O)o2)c1 |  | inconclusive: -27.8% |
| COc1ccc(N2CCN(C(=O)Cn3nnc(-c4ccccc4N)n3)CC2)cc1 |  | inconclusive: -3.67% |
| C/C(=N\NC(=O)c1ccc(F)cc1)c1ccccn1 | inconclusive: 6.51 µM [falling, partial curve] |  |
| O=C1SC(SCc2ccccc2)=N/C1=C\c1ccco1 |  | inconclusive: -109% |
| O=C(Nc1ccccc1)/C(=C/c1ccc(O)cc1)NC(=O)c1ccco1 |  | inconclusive: 144% |
| CC(=O)Nc1ccc(NC(=O)c2ccccc2N(C)S(=O)(=O)c2ccc(C)cc2)cc1 | inconclusive: 23.1 µM [falling, single point] |  |
| CC(C)c1nc2sc3c(NCc4ccco4)ncnc3c2c2c1COC(C)(C)C2 |  | inconclusive: 10.7% |
| O=C(NC1CCCCC1)c1ccc(CNc2c(N3CCOCC3)c(=O)c2=O)cc1 | inconclusive: 1.3 µM [falling, full curve] |  |
| CCOc1ccccc1NC(=O)COc1ccc2ccc(=O)oc2c1 |  | inconclusive: 30.5% |
